The target of experiment [1] is M2 muscarinic receptor fused to Renilla luciferase (M2R-RLuc) (human) (UniProt P08172). Description: FRET or BRET; BRET1 in intact HEK 293T cells co-expressing M2R-RLuc, GRK2 and Arr-2-YFP or Arr-3-YFP; carbachol (various concentrations or 10 uM) for 20, 30 or 60 min at 25 °C in KRHA buffer, 5 uM coelenterazine h; delta-BRET against buffer alone, in mB; in some series cells were preincubated with gallamine, Control IgG, DCD IgG or DCD IgG/pM2 before carbachol. Background: BRET reads energy transfer from a luciferase to a nearby fluorophore.

Sequences of proteins named here, by UniProt entry; tags and fusion partners are left off. A change or cut given only in a name is not applied to a line headed by its entry.
UniProt P08172: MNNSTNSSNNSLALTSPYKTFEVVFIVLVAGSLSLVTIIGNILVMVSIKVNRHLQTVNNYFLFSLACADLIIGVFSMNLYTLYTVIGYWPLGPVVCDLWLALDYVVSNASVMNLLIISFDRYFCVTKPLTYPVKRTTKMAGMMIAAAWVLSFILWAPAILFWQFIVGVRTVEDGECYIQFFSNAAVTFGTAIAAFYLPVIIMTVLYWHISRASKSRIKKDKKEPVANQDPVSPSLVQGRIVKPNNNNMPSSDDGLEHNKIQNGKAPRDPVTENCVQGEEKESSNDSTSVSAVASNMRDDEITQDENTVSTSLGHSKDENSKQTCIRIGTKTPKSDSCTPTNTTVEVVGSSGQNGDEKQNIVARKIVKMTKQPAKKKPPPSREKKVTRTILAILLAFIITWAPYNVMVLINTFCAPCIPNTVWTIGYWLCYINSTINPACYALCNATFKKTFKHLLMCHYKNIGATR
UniProt P49407: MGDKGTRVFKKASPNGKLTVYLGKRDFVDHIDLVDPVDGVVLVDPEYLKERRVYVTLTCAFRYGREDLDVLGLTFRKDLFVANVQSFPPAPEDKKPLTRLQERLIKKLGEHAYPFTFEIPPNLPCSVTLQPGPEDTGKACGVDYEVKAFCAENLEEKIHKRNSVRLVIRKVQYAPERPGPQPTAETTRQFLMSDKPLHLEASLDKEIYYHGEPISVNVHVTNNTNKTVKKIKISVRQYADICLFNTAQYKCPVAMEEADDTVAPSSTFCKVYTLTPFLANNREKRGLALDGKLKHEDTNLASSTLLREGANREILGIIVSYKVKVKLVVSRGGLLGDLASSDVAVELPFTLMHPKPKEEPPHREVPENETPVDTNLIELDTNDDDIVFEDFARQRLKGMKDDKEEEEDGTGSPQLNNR
UniProt P32121: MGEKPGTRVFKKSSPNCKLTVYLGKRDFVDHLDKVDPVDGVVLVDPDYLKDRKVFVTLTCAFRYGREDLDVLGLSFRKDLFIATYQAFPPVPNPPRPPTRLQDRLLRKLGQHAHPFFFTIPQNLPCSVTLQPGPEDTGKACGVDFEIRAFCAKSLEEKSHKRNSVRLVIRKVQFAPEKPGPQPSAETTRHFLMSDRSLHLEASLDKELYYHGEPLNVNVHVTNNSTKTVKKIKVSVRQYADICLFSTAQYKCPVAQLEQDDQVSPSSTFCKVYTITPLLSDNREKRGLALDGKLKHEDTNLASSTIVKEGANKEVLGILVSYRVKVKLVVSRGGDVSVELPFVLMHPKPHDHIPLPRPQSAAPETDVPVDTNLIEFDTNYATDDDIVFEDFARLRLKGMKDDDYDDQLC

Experiment [2] has the same target. The experiment in a line: condition: only without agonist (cells treated with Control IgG or DCD IgG alone); FRET or BRET; BRET1 in intact HEK 293T cells co-expressing M2R-RLuc, GRK2 and Arr-2-YFP or Arr-3-YFP; no agonist, cells treated with Control IgG or DCD IgG alone at various concentrations for 30 or 60 min, 25 °C; delta-BRET against buffer alone.
Experiment [3] has the same target. Description: condition: only cells preincubated with atropine (muscarinic antagonist) before 10 µM carbachol; FRET or BRET; BRET1 in intact HEK 293T cells co-expressing M2R-RLuc, GRK2 and Arr-2-YFP or Arr-3-YFP; preincubated with atropine at multiple concentrations for 15 min, then 10 uM carbachol for 20 min, 25 °C.

These are yes or no findings as the source states them, for the method shown. Binding seen in cells or lysates may run through a third protein. Some entries that bind do so weakly or less than the wild type.

“arrestin-2 fused to the enhanced yellow fluorescence protein (Arr-2-YFP) (from UniProt P49407 1-418)”: the binding result is “binds” in experiment [1], “no binding” in experiment [2] and “no binding” in experiment [3].

With “arrestin-3 fused to the enhanced yellow fluorescence protein (Arr-3-YFP) (from UniProt P32121 1-409)”, the binding entry in experiment [1] is recorded as “binds”; in experiment [2] it was “no binding”; in experiment [3], “no binding”.

These data come from paper PMC12690989.
